PMC12241364
Results are given in words; binding and its absence hold for the method and conditions named. Binding seen in cells or lysates may run through a third protein. Some binding calls cover weakened binding; strength is not graded here. Blank lines part the entries; values can stand above or below the substance they belong to.

By UniProt entry, the sequences of proteins in these tests, tags left out.
UniProt Q0D2I5: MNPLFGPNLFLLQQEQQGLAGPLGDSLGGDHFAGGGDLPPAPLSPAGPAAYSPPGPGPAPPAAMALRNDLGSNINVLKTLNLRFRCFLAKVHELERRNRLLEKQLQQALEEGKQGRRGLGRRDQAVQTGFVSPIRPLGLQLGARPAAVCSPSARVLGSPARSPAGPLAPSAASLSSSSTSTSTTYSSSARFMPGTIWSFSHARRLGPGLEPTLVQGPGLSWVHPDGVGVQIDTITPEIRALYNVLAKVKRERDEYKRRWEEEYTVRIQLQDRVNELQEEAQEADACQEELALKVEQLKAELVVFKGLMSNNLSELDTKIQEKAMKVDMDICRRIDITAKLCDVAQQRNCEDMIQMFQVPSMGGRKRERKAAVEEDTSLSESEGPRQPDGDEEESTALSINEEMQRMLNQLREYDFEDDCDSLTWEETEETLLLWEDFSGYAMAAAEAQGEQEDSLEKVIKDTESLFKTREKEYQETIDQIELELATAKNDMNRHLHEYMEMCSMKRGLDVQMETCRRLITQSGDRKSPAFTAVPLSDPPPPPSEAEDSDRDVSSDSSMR
UniProt Q86VI3: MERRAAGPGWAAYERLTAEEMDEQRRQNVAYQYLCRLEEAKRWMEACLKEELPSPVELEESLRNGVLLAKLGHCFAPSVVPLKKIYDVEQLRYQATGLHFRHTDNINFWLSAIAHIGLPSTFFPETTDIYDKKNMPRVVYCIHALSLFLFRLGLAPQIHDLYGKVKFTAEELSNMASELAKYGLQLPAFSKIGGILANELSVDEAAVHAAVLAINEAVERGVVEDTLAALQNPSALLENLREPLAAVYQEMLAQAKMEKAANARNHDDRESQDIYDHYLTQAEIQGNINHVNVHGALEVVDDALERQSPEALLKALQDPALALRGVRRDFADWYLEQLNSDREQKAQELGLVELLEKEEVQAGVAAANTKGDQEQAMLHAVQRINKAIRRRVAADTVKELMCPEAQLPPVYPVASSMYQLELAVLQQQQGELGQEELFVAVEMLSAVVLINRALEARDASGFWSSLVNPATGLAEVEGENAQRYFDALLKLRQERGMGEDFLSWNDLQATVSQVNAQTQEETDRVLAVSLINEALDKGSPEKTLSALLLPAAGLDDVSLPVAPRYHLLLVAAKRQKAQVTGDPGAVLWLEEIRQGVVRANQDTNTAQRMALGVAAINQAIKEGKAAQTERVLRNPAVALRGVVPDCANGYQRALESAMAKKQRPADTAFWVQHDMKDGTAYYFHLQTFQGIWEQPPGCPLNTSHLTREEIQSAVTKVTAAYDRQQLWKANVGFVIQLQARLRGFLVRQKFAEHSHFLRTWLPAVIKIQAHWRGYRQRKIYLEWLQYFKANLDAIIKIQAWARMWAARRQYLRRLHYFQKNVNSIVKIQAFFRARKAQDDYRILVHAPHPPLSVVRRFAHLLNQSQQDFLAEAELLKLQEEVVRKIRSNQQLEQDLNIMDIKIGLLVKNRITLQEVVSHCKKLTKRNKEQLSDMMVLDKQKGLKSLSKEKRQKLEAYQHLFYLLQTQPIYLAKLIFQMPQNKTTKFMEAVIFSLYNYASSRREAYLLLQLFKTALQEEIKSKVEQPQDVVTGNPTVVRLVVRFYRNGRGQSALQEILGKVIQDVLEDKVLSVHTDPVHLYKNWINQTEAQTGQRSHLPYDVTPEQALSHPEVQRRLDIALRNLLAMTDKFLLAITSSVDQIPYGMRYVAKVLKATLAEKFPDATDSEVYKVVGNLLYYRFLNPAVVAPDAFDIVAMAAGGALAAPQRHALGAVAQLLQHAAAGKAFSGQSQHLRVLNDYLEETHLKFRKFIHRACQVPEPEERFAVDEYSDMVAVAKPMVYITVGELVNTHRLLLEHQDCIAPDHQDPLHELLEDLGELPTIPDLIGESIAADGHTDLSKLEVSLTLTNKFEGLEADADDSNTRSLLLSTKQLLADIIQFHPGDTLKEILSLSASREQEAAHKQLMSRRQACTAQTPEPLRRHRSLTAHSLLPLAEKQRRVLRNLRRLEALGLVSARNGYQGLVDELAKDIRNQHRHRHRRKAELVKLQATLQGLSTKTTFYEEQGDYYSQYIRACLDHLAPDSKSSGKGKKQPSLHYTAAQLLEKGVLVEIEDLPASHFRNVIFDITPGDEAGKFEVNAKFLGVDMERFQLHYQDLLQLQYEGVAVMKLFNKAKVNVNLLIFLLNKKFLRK
UniProt P60953: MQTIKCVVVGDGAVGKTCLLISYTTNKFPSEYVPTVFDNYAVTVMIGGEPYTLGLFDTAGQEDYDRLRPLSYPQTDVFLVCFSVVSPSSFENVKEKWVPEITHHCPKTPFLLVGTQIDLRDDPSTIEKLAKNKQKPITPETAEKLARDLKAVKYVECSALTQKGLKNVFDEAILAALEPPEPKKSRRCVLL

Tests used:
[1] = biological target: Flag-tagged IFFO1 (full-length) (UniProt Q0D2I5); assay: co-IP; Flag-IFFO1 immunoprecipitated on anti-Flag affinity gel from NTEN lysate (150 mM NaCl, 0.5% NP40), overnight; Western blot of the co-precipitated proteins
[2] = biological target: Myc-tagged IQGAP3 (UniProt Q86VI3); assay: co-IP; IP of Myc-tagged IQGAP3 in IFFO1-/- cells with re-expression of increasing amounts of Flag-IFFO1; blot for Cdc42
[3] = biological target: Myc-tagged IQGAP3 (UniProt Q86VI3); assay: co-IP; IP of Myc-tagged IQGAP3 in WT and IFFO1-/- NCI-H1299 cells; blot for Cdc42
[4] = biological target: Myc-tagged IQGAP3 (UniProt Q86VI3); assay: co-IP; IP of overexpressed Myc-tagged IQGAP3; blot for IFFO1
[5] = biological target: Flag-tagged IFFO1 (full-length) (UniProt Q0D2I5); assay: co-IP; full-length IFFO1 and its truncated mutants expressed in IFFO1-/- cells; IP and blot for IQGAP3
[6] = biological target: Flag-tagged IFFO1 (full-length) (UniProt Q0D2I5); assay: co-IP; Flag-IFFO1 and Myc-IQGAP3 expressed together in IFFO1-/- NCI-H1299 cells

binding [1]: no binding
binding [2]: binds
binding [3]: binds
Substance: Cdc42, endogenous (from UniProt P60953 1-191)

binding [4]: binds
Substance: IFFO1 (construct or endogenous form not stated) (from UniProt Q0D2I5 1-559)

binding [5]: binds
binding [1]: binds
Substance: IQGAP3 (IQ motif-containing GTPase-activating protein 3), endogenous (from UniProt Q86VI3 1-1631)

binding [6]: binds
Substance: Myc-tagged IQGAP3 (from UniProt Q86VI3 1-1631)
